# PubChem BioAssay AID1347076 (National Center for Advancing Translational Sciences (NCATS), 2019)
# About 13,000 (3.2%) of roughly 400,000 compounds were called active. Inconclusive means that the source gave no clear call. Such entries were picked first, then a sample of the others. Calls come from the whole dose curve; as a rule, active = well fitted cell-killing curve with a large enough effect; inconclusive = small, poorly fitted or top-dose-only effect, or effect the other way; inactive = flat fitted curve, though single readings scatter. Where the call is inconclusive, the potency comes from a doubtful curve fit.
# Experiment: qHTS assay for MDR1-selective chemotherapeutics: Primary screen using the drug-selected MDR subline cells KB-V1; note: nearly all actives have a fitted effect of over 60% in size
# Settings: KB-V1 MDR cells viability, CellTiter-Glo, 72 h; series mostly up to 46.1 µM
# In short: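 Following 72 h at 37 degrees C with compound, KB-V1 cell viability was read by CellTiter-Glo luminescence, medium being phenol-red-free DMEM plus 10% FBS; concentration-response parameters came from normalized, curve-fitted qHTS data.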
# Potency is the fitted concentration of half-maximal effect.
row,Structure (SMILES),Potency
1,CNc1ncnc2c1ncn2[C@H]1CN(CCN2CCOCC2)C[C@@H](CO)O1,inactive
2,COc1ccc(NC(=O)c2cn(-c3ccccc3)nc2-c2ccncc2)cc1,"inconclusive: 23.1 µM [cytotoxic, partial curve]"
3,COc1ccc(OC)c(C2=NOC(C(=O)NCc3cccs3)C2)c1 (stereo not given),"inconclusive: 16.4 µM [cytotoxic, partial curve]"
4,CC(=O)N1CCc2c(sc3c2c(=O)n(CCc2ccccc2)c(=O)n3CC(=O)Nc2ccccc2F)C1,inactive
5,O=C(NCc1ccccc1)C(c1ccco1)N(C(=O)c1ccccn1)c1ccc(F)cc1 (stereo not given),inactive
6,CCS(=O)(=O)N1CCN(c2ccc(Cl)cc2[N+](=O)[O-])CC1,"inconclusive: 23.1 µM [cytotoxic, partial curve]"
7,CS(=O)(=O)N(CC(=O)Nc1c(F)cccc1F)c1ccc(C23CC4CC(CC(C4)C2)C3)cc1,inactive
8,Cn1cc(C(=O)O)c(=O)c2cc(S(=O)(=O)N3CCOCC3)ccc21,"inconclusive: 13 µM [cytotoxic, partial curve]"
9,O=C(Cc1ccccc1)NCC(=O)Nc1cccc(Br)c1,"inconclusive: 20.6 µM [rising, partial curve, poor fit]"
10,Cc1cc(C)c(S(=O)(=O)n2ccc(-c3ccc(OCCN(C)c4ccccn4)cc3)n2)c(C)c1,"inconclusive: 4.11 µM [cytotoxic, full curve]"
11,CCOC(=O)[C@]12CCCC=C1N(Cc1ccccc1)C(=O)[C@H](CC(=O)N1CCOCC1)C2,"inconclusive: 20.6 µM [cytotoxic, partial curve, poor fit]"
12,CCNC(=S)N(Cc1ccco1)Cc1cc2cc(OCC)ccc2[nH]c1=O,"inconclusive: 23.1 µM [cytotoxic, single point]"
13,Cc1cc2nccc(-c3ccncc3)n2n1,"inconclusive: 18.4 µM [rising, single point]"
14,COc1ccccc1N1CCN(c2ccc(=O)n(CC(=O)Nc3cc(F)ccc3C)n2)CC1,inactive
15,O=C(CN1CCN(C(=O)c2ccco2)CC1)Nc1cc(S(=O)(=O)N2CCCC2)ccc1Cl,"inconclusive: 8.2 µM [cytotoxic, partial curve, poor fit]"
16,COc1ccc(-n2c(SCC(=O)c3ccc(Cl)cc3)nc3c([nH]c4ccccc43)c2=O)cc1,"inconclusive: 3.66 µM [rising, full curve]"
17,COC(=O)c1ccc(N2CCN(c3ccccc3)CC2)c(NC(=O)C2CC2)c1,"inconclusive: 11.6 µM [cytotoxic, partial curve, poor fit]"
18,CCCCNC(=O)CCCn1c(=O)c2ccccc2n(CC(=O)Nc2ccccc2OCC)c1=O,inactive
19,O=C(CSc1nc2ccc(Cl)cc2[nH]1)Nc1ccc2c(c1)CCC2,"inconclusive: 20.6 µM [cytotoxic, single point]"
20,COc1ccccc1C1=NOC(COC(=O)c2ccc([N+](=O)[O-])cc2)C1 (stereo not given),"inconclusive: 20.6 µM [rising, single point]"
21,COC(=O)C1(C(=O)OC)C[C@H](/C=C/c2ccccc2)N(Cc2ccccc2OC)[C@@H]1c1ccc(F)cc1,"inconclusive: 20.6 µM [cytotoxic, single point]"
22,COCCN(Cc1cc2cc3c(cc2nc1Cl)OCO3)C(=O)c1cccc(C)c1,"inconclusive: 7.31 µM [cytotoxic, partial curve]"

# 3 structures out of the list, arranged by SMILES length, low to high:
row,Structure (SMILES),Potency
13,Cc1cc2nccc(-c3ccncc3)n2n1,"inconclusive: 18.4 µM [rising, single point]"
20,COc1ccccc1C1=NOC(COC(=O)c2ccc([N+](=O)[O-])cc2)C1 (stereo not given),"inconclusive: 20.6 µM [rising, single point]"
14,COc1ccccc1N1CCN(c2ccc(=O)n(CC(=O)Nc3cc(F)ccc3C)n2)CC1,inactive

# Additional results follow.

row,Structure (SMILES),Potency
1,Cn1c(=NC(=O)C2CC2)sc2cccc(F)c21,"inconclusive: 23.1 µM [cytotoxic, single point]"
2,CCOC(=O)c1c(C)sc2c1N(C(=O)CN1CCOCC1)c1cc(Cl)ccc1S2,"inconclusive: 20.6 µM [cytotoxic, single point]"
3,Nc1c(C(=O)NCc2ccco2)c2nc3ccccc3nc2n1CCc1ccc(F)cc1,active: 16.4 µM
4,COc1ccc(C(=O)N2CCCC(c3nc(-c4ccc(OC)c(OC)c4)no3)C2)c(OC)c1 (stereo not given),active: 4.11 µM
5,CS(=O)(=O)N(CC(=O)Nc1ccccc1Cl)c1ccc(Cl)cc1,"inconclusive: 29.1 µM [cytotoxic, single point]"
6,O=c1n(Cc2ccc(Cl)cc2)c2sc3c(c2c2ncnn12)CCCC3,"inconclusive: 7.31 µM [cytotoxic, partial curve, poor fit]"
7,COc1ccc(-c2noc(CN(C)C(=O)c3ccoc3C)n2)cc1,"inconclusive: 18.4 µM [cytotoxic, single point]"
8,Cn1cc(CN2CCN(Cc3ccccc3)CC2)c(-c2cccc(Cl)c2)n1,inactive
9,CCCc1cnc2c(c1SCC(=O)Nc1ccc(C)c(Cl)c1)c(=O)n(C)c(=O)n2C,"inconclusive: 16.4 µM [cytotoxic, single point]"
10,COc1cc(/C=C(\C#N)c2nc3ccccc3[nH]2)ccc1OCc1cccc(C(F)(F)F)c1,"inconclusive: 16.4 µM [cytotoxic, partial curve]"
11,Cc1ncc(CN2CCC(CO)(CCOc3ccccc3)CC2)s1,"inconclusive: 23.1 µM [cytotoxic, partial curve]"
12,COc1cc(/C=N/NC(=O)CCn2c3ccccc3c3ccccc32)cc(OC)c1OC,active: 4.61 µM
13,CCOc1ccc(/C=C2/Sc3ccc(C(=O)N4CCOCC4)cc3N(C)C2=O)cc1OC,"inconclusive: 7.31 µM [cytotoxic, partial curve]"
14,Cc1cccc(C)c1-n1nnnc1C(c1cccs1)N1CCN(C/C=C/c2ccccc2)CC1 (stereo not given),"inconclusive: 29.1 µM [cytotoxic, single point]"
15,CCc1nc2ccc(C(=O)NCCOc3ccc(OC)cc3)cn2c1N(C)C(=O)Cc1ccccc1,inactive
16,COc1ccc(CN2CCC(C)CC2)cc1OCc1ccccc1,"inconclusive: 0.731 µM [cytotoxic, full curve]"
17,CN(C(=O)CSCC(=O)O)C1CCCCC1,inactive
18,Cc1cccc(N=C2NC(=O)/C(=C/C=C/c3ccco3)S2)c1,"inconclusive: 29.1 µM [cytotoxic, single point]"
19,COc1ccc(CNc2ncnc3onc(-c4ccc(F)cc4)c23)cc1,"inconclusive: 3.66 µM [cytotoxic, full curve]"
20,CCOc1ccccc1NC(=O)N1CCc2c(sc(C)c2CC)C1c1ccccc1 (stereo not given),"inconclusive: 14.6 µM [cytotoxic, single point]"
21,CNC(=O)/C(C#N)=C/c1c(N(Cc2ccccc2)Cc2ccccc2)nc2c(C)cccn2c1=O,active: 23.1 µM
22,COC(=O)c1c(NC(=O)C(C)(C)C)sc2c1C(C(=O)OC)CC2 (stereo not given),active: 20.6 µM

row,Structure (SMILES),Potency
1,FC(F)(F)c1cc(-c2ccco2)nc(-n2nc(C(F)(F)F)cc2C2CC2)n1,"inconclusive: 29.1 µM [cytotoxic, single point]"
2,CS(=O)(=O)N(CC(=O)Nc1ccc(Br)cc1)C1CCCCC1,"inconclusive: 23.1 µM [cytotoxic, partial curve, poor fit]"
3,C/C(=N\Nc1ccccn1)c1ccc(S(=O)(=O)NCc2ccco2)cc1,"inconclusive: 29.1 µM [cytotoxic, single point]"
4,COc1ccc(C2(O)C(=O)Nc3ccc(C)cc32)cc1 (stereo not given),"inconclusive: 25.9 µM [rising, single point]"
5,CC(C)(C)c1ccc(S(=O)(=O)N2CCC(N3CCCCC3)CC2)cc1,"inconclusive: 3.26 µM [cytotoxic, full curve]"
6,CC(=O)n1c(-c2ccccc2)c(-c2ccccc2)n(C)c1=O,inactive
7,CN(C)S(=O)(=O)c1ccc(C(=O)Nc2nnc(-c3ccco3)o2)cc1,"inconclusive: 29.1 µM [cytotoxic, single point]"
8,Cn1c(SCC(=O)N2CCN(c3ccccc3)CC2)nnc1-c1ccccc1,"inconclusive: 8.2 µM [cytotoxic, partial curve]"
9,Cc1ccc(Cl)cc1N1CCN(S(=O)(=O)c2ccc3c(c2)CC(C)N3C(=O)C2CCC2)CC1 (stereo not given),"inconclusive: 20.6 µM [cytotoxic, single point]"
10,O=C(CS(=O)(=O)c1ccc(Br)cc1)N1CCOCC1,"inconclusive: 32.6 µM [rising, single point]"
11,O=C1C=C(Nc2ccc(F)cc2)c2ccccc2C1=O,active: 20.6 µM
12,CC(C)(C)c1ccc(N=C2SCC(=O)N2Cc2cccs2)cc1,"inconclusive: 14.6 µM [cytotoxic, single point]"
13,Cc1cc(Cl)c2ccccc2n1,"inconclusive: 32.6 µM [rising, single point]"
14,COC(=O)[C@@]1(Cc2ccc(F)cc2)[C@H]2c3cc(C(=O)N(C)C)n(Cc4ccc(C)c(F)c4F)c3C[C@H]2CN1C(=O)c1ccccc1,"inconclusive: 23.1 µM [cytotoxic, single point]"
15,CCN(CC)C(=O)CSc1nc2cc(OC)c(OC)cc2c(=O)n1Cc1ccc(Cl)cc1,"inconclusive: 15.8 µM [cytotoxic, single point]"
16,CC(/C=N/NC(=O)Cn1cnc2ccccc21)=C\c1ccccc1,inactive
17,CCOC(=O)Cn1c(=NC(=O)c2ccc([N+](=O)[O-])s2)sc2ccccc21,"inconclusive: 13 µM [cytotoxic, partial curve]"
18,COc1cc(OC)cc(C(=O)N2CCN(Cc3ccccc3C(F)(F)F)CC2)c1,active: 14.6 µM
19,CCNC(=O)C(Cc1ccccc1)NC(=O)OCc1ccccc1 (stereo not given),"inconclusive: 18.4 µM [cytotoxic, single point]"
20,CC(=O)N(Cc1ccccc1)Cc1nc2sc(C)c(C)c2c(=O)[nH]1,"inconclusive: 29.1 µM [rising, single point]"
21,Cc1cc(C)c(SCCc2ccncc2)c(C)c1,"inconclusive: 6.51 µM [cytotoxic, partial curve]"
